No constants are given. Whether binding was seen depends on the method and setting. In cells and extracts the contact can be indirect. Some entries that bind do so weakly or less than the wild type.
Target: Vps34 (human) (UniProt Q8NEB9)
Assay: co-IP; H1299 cells lysed in NP-40 buffer with PMSF; antibody and protein G agarose beads overnight at 4 °C; washed 3 times; western blot; for Fig. 4J with or without GNIP1 overexpression

Sequences of proteins named here, by UniProt entry; tags and fusion partners are left off.
UniProt Q8NEB9: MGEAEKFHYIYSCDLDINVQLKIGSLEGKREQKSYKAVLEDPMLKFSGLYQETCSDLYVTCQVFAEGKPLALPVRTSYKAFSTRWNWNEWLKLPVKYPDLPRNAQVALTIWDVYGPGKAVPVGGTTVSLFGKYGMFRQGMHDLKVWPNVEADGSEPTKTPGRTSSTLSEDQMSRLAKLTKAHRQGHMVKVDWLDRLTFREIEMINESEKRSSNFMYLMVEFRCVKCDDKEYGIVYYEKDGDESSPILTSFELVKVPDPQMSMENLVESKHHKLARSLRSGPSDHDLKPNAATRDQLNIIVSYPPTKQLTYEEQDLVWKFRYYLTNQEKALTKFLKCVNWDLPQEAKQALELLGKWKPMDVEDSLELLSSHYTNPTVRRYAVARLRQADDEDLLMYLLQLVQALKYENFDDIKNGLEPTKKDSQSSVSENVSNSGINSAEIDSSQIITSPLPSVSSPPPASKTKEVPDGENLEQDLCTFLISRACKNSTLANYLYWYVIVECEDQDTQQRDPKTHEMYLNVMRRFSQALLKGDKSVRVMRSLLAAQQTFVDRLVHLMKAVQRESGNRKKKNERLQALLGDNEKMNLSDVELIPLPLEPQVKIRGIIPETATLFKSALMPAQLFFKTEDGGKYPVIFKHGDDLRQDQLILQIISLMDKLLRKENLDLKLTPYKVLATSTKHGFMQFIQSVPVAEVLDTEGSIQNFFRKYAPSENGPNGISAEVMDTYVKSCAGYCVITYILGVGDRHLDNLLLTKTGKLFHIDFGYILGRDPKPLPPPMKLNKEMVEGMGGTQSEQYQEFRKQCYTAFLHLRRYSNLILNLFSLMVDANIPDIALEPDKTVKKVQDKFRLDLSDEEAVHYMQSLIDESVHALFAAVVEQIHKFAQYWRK
UniProt P63104: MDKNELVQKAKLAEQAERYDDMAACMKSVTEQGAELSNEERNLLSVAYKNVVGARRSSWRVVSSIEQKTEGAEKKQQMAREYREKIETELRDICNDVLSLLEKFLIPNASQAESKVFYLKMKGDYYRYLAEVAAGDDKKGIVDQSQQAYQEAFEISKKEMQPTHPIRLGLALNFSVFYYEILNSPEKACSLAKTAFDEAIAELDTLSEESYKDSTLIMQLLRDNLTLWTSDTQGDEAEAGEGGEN

## 14-3-3ζ (from UniProt P63104 1-245)
  binding: binds
